Experimental data from paper PMC7956269.
No constants are given. Whether binding was seen depends on the method and setting. Binding seen in cells or lysates may run through a third protein. A yes stands for co-enrichment or nearness to the bait. Other partners may have been found.

B1: Utp14a (protein, UniProt Q9BVJ6 1-771)
chain: MTANRLAESLLALSQQEELADLPKDYLLSESEDEGDNDGERKHQKLLEAISSLDGKNRRKLAERSEASLKVSEFNVSSEGSGEKLVLADLLEPVKTSSSLATVKKQLSRVKSKKTVELPLNKEEIERIHREVAFNKTAQVLSKWDPVVLKNRQAEQLVFPLEKEEPAIAPIEHVLSGWKARTPLEQEIFNLLHKNKQPVTDPLLTPVEKASLRAMSLEEAKMRRAELQRARALQSYYEAKARREKKIKSKKYHKVVKKGKAKKALKEFEQLRKVNPAAALEELEKIEKARMMERMSLKHQNSGKWAKSKAIMAKYDLEARQAMQEQLSKNKELTQKLQVASESEEEEGGTEDVEELLVPDVVNEVQMNADGPNPWMLRSCTSDTKEAATQEDPEQLPELEAHGVSESEGEERPVAEEEILLREFEERRSLRKRSELSQDAEPAGSQETKDSGSQEVLSELRVLSQKLKENHQSRKQKASSEGTIPQVQREEPAPEEEEPLLLQRPERVQTLEELEELGKEECFQNKELPRPVLEGQQSERTPNNRPDAPKEKKKKEQMIDLQNLLTTQSPSVKSLAVPTIEELEDEEERNHRQMIKEAFAGDDVIRDFLKEKREAVEASKPKDVDLTLPGWGEWGGVGLKPSAKKRRRFLIKAPEGPPRKDKNLPNVIINEKRNIHAAAHQVRVLPYPFTHHWQFERTIQTPIGSTWNTQRAFQKLTTPKVVTKPGHIINPIKAEDVGYRSSSRSDLSVIQRNPKRITTRHKKQLKKCSVD
B2: Thrap3 (protein, UniProt Q9Y2W1 1-955)
chain: MSKTNKSKSGSRSSRSRSASRSRSRSFSKSRSRSRSLSRSRKRRLSSRSRSRSYSPAHNRERNHPRVYQNRDFRGHNRGYRRPYYFRGRNRGFYPWGQYNRGGYGNYRSNWQNYRQAYSPRRGRSRSRSPKRRSPSPRSRSHSRNSDKSSSDRSRRSSSSRSSSNHSRVESSKRKSAKEKKSSSKDSRPSQAAGDNQGDEAKEQTFSGGTSQDTKASESSKPWPDATYGTGSASRASAVSELSPRERSPALKSPLQSVVVRRRSPRPSPVPKPSPPLSSTSQMGSTLPSGAGYQSGTHQGQFDHGSGSLSPSKKSPVGKSPPSTGSTYGSSQKEESAASGGAAYTKRYLEEQKTENGKDKEQKQTNTDKEKIKEKGSFSDTGLGDGKMKSDSFAPKTDSEKPFRGSQSPKRYKLRDDFEKKMADFHKEEMDDQDKDKAKGRKESEFDDEPKFMSKVIGANKNQEEEKSGKWEGLVYAPPGKEKQRKTEELEEESFPERSKKEDRGKRSEGGHRGFVPEKNFRVTAYKAVQEKSSSPPPRKTSESRDKLGAKGDFPTGKSSFSITREAQVNVRMDSFDEDLARPSGLLAQERKLCRDLVHSNKKEQEFRSIFQHIQSAQSQRSPSELFAQHIVTIVHHVKEHHFGSSGMTLHERFTKYLKRGTEQEAAKNKKSPEIHRRIDISPSTFRKHGLAHDEMKSPREPGYKAEGKYKDDPVDLRLDIERRKKHKERDLKRGKSRESVDSRDSSHSRERSAEKTEKTHKGSKKQKKHRRARDRSRSSSSSSQSSHSYKAEEYTEETEEREESTTGFDKSRLGTKDFVGPSERGGGRARGTFQFRARGRGWGRGNYSGNNNNNSNNDFQKRNREEEWDPEYTPKSKKYYLHDDREGEGSDKWVSRGRGRGAFPRGRGRFMFRKSSTSPKWAHDKFSGEEGEIEDDESGTENREEKDNIQPTTE
B3: Rrp1b (protein, UniProt Q14684 1-758)
chain: MAPAMQPAEIQFAQRLASSEKGIRDRAVKKLRQYISVKTQRETGGFSQEELLKIWKGLFYCMWVQDEPLLQEELANTIAQLVHAVNNSAAQHLFIQTFWQTMNREWKGIDRLRLDKYYMLIRLVLRQSFEVLKRNGWEESRIKVFLDVLMKEVLCPESQSPNGVRFHFIDIYLDELSKVGGKELLADQNLKFIDPFCKIAAKTKDHTLVQTIARGVFEAIVDQSPFVPEETMEEQKTKVGDGDLSAEEIPENEVSLRRAVSKKKTALGKNHSRKDGLSDERGRDDCGTFEDTGPLLQFDYKAVADRLLEMTSRKNTPHFNRKRLSKLIKKFQDLSEGSSISQLSFAEDISADEDDQILSQGKHKKKGNKLLEKTNLEKEKGSRVFCVEEEDSESSLQKRRRKKKKKHHLQPENPGPGGAAPSLEQNRGREPEASGLKALKARVAEPGAEATSSTGEESGSEHPPAVPMHNKRKRPRKKSPRAHREMLESAVLPPEDMSQSGPSGSHPQGPRGSPTGGAQLLKRKRKLGVVPVNGSGLSTPAWPPLQQEGPPTGPAEGANSHTTLPQRRRLQKKKAGPGSLELCGLPSQKTASLKKRKKMRVMSNLVEHNGVLESEAGQPQALGSSGTCSSLKKQKLRAESDFVKFDTPFLPKPLFFRRAKSSTATHPPGPAVQLNKTPSSSKKVTFGLNRNMTAEFKKTDKSILVSPTGPSRVAFDPEQKPLHGVLKTPTSSPASSPLVAKKPLTTTPRRRPRAMDFF
B4: Cdkl5 (protein, UniProt O76039 1-960)
chain: MKIPNIGNVMNKFEILGVVGEGAYGVVLKCRHKETHEIVAIKKFKDSEENEEVKETTLRELKMLRTLKQENIVELKEAFRRRGKLYLVFEYVEKNMLELLEEMPNGVPPEKVKSYIYQLIKAIHWCHKNDIVHRDIKPENLLISHNDVLKLCDFGFARNLSEGNNANYTEYVATRWYRSPELLLGAPYGKSVDMWSVGCILGELSDGQPLFPGESEIDQLFTIQKVLGPLPSEQMKLFYSNPRFHGLRFPAVNHPQSLERRYLGILNSVLLDLMKNLLKLDPADRYLTEQCLNHPTFQTQRLLDRSPSRSAKRKPYHVESSTLSNRNQAGKSTALQSHHRSNSKDIQNLSVGLPRADEGLPANESFLNGNLAGASLSPLHTKTYQASSQPGSTSKDLTNNNIPHLLSPKEAKSKTEFDFNIDPKPSEGPGTKYLKSNSRSQQNRHSFMESSQSKAGTLQPNEKQSRHSYIDTIPQSSRSPSYRTKAKSHGALSDSKSVSNLSEARAQIAEPSTSRYFPSSCLDLNSPTSPTPTRHSDTRTLLSPSGRNNRNEGTLDSRRTTTRHSKTMEELKLPEHMDSSHSHSLSAPHESFSYGLGYTSPFSSQQRPHRHSMYVTRDKVRAKGLDGSLSIGQGMAARANSLQLLSPQPGEQLPPEMTVARSSVKETSREGTSSFHTRQKSEGGVYHDPHSDDGTAPKENRHLYNDPVPRRVGSFYRVPSPRPDNSFHENNVSTRVSSLPSESSSGTNHSKRQPAFDPWKSPENISHSEQLKEKEKQGFFRSMKKKKKKSQTVPNSDSPDLLTLQKSIHSASTPSSRPKEWRPEKISDLQTQSQPLKSLRKLLHLSSASNHPASSDPRFQPLTAQQTKNSFSEIRIHPLSQASGGSSNIRQEPAPKGRPALQLPGQMDPGWHVSSVTRSATEGPSYSEQLGAKSGPNGHPYNRTNRSRMPNLNDLKETAL
B5: Ppp1r10 (protein, UniProt Q96QC0 1-940)
chain: MGSGPIDPKELLKGLDSFLNRDGEVKSVDGISKIFSLMKEARKMVSRCTYLNILLQTRSPEILVKFIDVGGYKLLNNWLTYSKTTNNIPLLQQILLTLQHLPLTVDHLKQNNTAKLVKQLSKSSEDEELRKLASVLVSDWMAVIRSQSSTQPAEKDKKKRKDEGKSRTTLPERPLTEVKAETRAEEAPEKKREKPKSLRTTAPSHAKFRSTGLELETPSLVPVKKNASTVVVSDKYNLKPIPLKRQSNVAAPGDATPPAEKKYKPLNTTPNATKEIKVKIIPPQPMEGLGFLDALNSAPVPGIKIKKKKKVLSPTAAKPSPFEGKTSTEPSTAKPSSPEPAPPSEAMDADRPGTPVPPVEVPELMDTASLEPGALDAKPVESPGDPNQLTRKGRKRKSVTWPEEGKLREYFYFELDETERVNVNKIKDFGEAAKREILSDRHAFETARRLSHDNMEEKVPWVCPRPLVLPSPLVTPGSNSQERYIQAEREKGILQELFLNKESPHEPDPEPYEPIPPKLIPLDEECSMDETPYVETLEPGGSGGSPDGAGGSKLPPVLANLMGSMGAGKGPQGPGGGGINVQEILTSIMGSPNSHPSEELLKQPDYSDKIKQMLVPHGLLGPGPIANGFPPGGPGGPKGMQHFPPGPGGPMPGPHGGPGGPVGPRLLGPPPPPRGGDPFWDGPGDPMRGGPMRGGPGPGPGPYHRGRGGRGGNEPPPPPPPFRGARGGRSGGGPPNGRGGPGGGMVGGGGHRPHEGPGGGMGNSSGHRPHEGPGGGMGSGHRPHEGPGGSMGGGGGHRPHEGPGGGISGGSGHRPHEGPGGGMGAGGGHRPHEGPGGSMGGSGGHRPHEGPGHGGPHGHRPHDVPGHRGHDHRGPPPHEHRGHDGPGHGGGGHRGHDGGHSHGGDMSNRPVCRHFMMKGNCRYENNCAFYHPGVNGPPLP
B6: Ctcf (protein, UniProt P49711 1-727)
chain: MEGDAVEAIVEESETFIKGKERKTYQRRREGGQEEDACHLPQNQTDGGEVVQDVNSSVQMVMMEQLDPTLLQMKTEVMEGTVAPEAEAAVDDTQIITLQVVNMEEQPINIGELQLVQVPVPVTVPVATTSVEELQGAYENEVSKEGLAESEPMICHTLPLPEGFQVVKVGANGEVETLEQGELPPQEDPSWQKDPDYQPPAKKTKKTKKSKLRYTEEGKDVDVSVYDFEEEQQEGLLSEVNAEKVVGNMKPPKPTKIKKKGVKKTFQCELCSYTCPRRSNLDRHMKSHTDERPHKCHLCGRAFRTVTLLRNHLNTHTGTRPHKCPDCDMAFVTSGELVRHRRYKHTHEKPFKCSMCDYASVEVSKLKRHIRSHTGERPFQCSLCSYASRDTYKLKRHMRTHSGEKPYECYICHARFTQSGTMKMHILQKHTENVAKFHCPHCDTVIARKSDLGVHLRKQHSYIEQGKKCRYCDAVFHERYALIQHQKSHKNEKRFKCDQCDYACRQERHMIMHKRTHTGEKPYACSHCDKTFRQKQLLDMHFKRYHDPNFVPAAFVCSKCGKTFTRRNTMARHADNCAGPDGVEGENGGETKKSKRGRKRKMRSKKEDSSDSENAEPDLDDNEDEEEPAVEIEPEPEPQPVTPAPPPAKKRRGRPPGRTNQPKQNQPTAIIQVEDQNTGAIENIIVEVKKEPDAEPAEGEEEEAQPAATDAPNGDLTPEMILSMMDR
B7: Krt77 (protein, UniProt Q7Z794 1-578)
chain: MSHQFSSQSAFSSMSRRVYSTSSSAGSGGGSPAVGSVCYARGRCGGGGYGIHGRGFGSRSLYNLGGSRSISINLMGRSTSGFCQGGGVGGFGGGRGFGVGSTGAGGFGGGGFGGAGFGTSNFGLGGFGPYCPPGGIQEVTINQSLLEPLHLEVDPEIQRIKTQEREQIMVLNNKFASFIDKVRFLEQQNQVLQTKWELLQQVNTSTGTNNLEPLLENYIGDLRRQVDLLSAEQMRQNAEVRSMQDVVEDYKSKYEDEINKRTGSENDFVVLKKDVDAAYVSKVDLESRVDTLTGEVNFLKYLFLTELSQVQTHISDTNVILSMDNNRSLDLDSIIDAVRTQYELIAQRSKDEAEALYQTKYQELQITAGRHGDDLKNSKMEIAELNRTVQRLQAEISNVKKQIEQMQSLISDAEERGEQALQDAWQKLQDLEEALQQSKEELARLLRDYQAMLGVKLSLDVEIATYRQLLEGEESRMSGELQSHVSISVQNSQVSVNGGAGGGGSYGSGGYGGGSGGGYGGGRSYRGGGARGRSGGGYGSGCGGGGGSYGGSGRSGRGSSRVQIIQTSTNTSHRRILE

Biological target: Biotin-FOXC1 (mouse) (UniProt Q61572)
Experiment: affinity purification with mass spectrometry; streptavidin-agarose precipitation of biotinylated FOXC1 from nuclear extract of stable HEK293T cells (293T-Biotin-FOXC1); IP350 buffer (350 mM NaCl, 20 mM Tris-HCl pH 7.5, 0.5% NP40, 1 mM EDTA, 10% glycerin); SDS-PAGE, LC-ESI-MS/MS; proteins of the 293T-Biotin control deducted

Q: How did the binding turn out when B1 was run?
A: binds

Q: For B2, which binding is on record?
A: binds

Q: How did the binding turn out when B3 was run?
A: binds

Q: B4 was tested. Which binding did it give?
A: binds

Q: Which binding does the source give for B5 here?
A: binds

Q: With B6 as the binder, how does the binding read?
A: binds

Q: B7 was tested. Which binding did it give?
A: binds
